From ChEMBL document CHEMBL3988442, “University of Dundee, Small-Polar-MMV Screening Library” (2021).

By UniProt entry, the sequences of proteins in these tests, tags left out.
UniProt E9BF75, entry or part of it: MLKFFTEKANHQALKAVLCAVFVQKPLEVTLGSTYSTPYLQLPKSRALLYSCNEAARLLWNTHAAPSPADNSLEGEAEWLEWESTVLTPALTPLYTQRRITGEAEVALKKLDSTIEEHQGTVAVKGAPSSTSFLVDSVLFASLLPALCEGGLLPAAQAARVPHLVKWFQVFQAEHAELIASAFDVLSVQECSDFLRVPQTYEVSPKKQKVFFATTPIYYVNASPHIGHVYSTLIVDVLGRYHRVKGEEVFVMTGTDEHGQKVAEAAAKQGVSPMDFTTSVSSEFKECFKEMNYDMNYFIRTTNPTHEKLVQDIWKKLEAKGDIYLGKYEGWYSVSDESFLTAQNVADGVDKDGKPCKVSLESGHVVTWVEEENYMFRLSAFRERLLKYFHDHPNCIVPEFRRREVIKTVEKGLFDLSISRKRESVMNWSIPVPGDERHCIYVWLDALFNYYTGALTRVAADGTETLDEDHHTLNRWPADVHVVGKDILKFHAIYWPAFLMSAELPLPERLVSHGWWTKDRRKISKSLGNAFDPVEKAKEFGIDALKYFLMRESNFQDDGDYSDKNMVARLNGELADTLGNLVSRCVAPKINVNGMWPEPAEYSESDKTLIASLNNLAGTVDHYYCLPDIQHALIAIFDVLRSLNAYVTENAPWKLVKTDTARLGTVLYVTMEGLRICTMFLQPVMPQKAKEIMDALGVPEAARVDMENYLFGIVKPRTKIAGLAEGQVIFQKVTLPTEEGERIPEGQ

LdMetRS: 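Primary screen of methionyl-tRNA synthetase; the read-out is not stated. Target: Methionyl-tRNA synthetase (putative), Leishmania donovani (UniProt E9BF75). The test concentration is not given. Values are per cent inhibition. About 68,000 compounds were tested under these conditions; 0.035% (about 24) showed 50% or more at least once.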
Mtb heat-shock: 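Assay on Mycobacterium tuberculosis, filed only as a heat shock assay from Cornell; the read-out is not stated. The concentration is filed as 10 mM, unlikely as a test dose, so the dose is not known. Higher reads as stronger inhibition (inferred: compounds with an IC50 in retests scored well above the rest). Size under these conditions: about 69,000 compounds, about 930 of them at 50% or above in at least one test.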

All values are in %.
How 0% and 100% were set is not recorded. Most values in the screen are low, and negative values occur.
The compounds are a random part of those screened.
A dash means the value is not listed here; it may have been measured.

{"compound": "O=C(c1cnccn1)N1C[C@@H]2CCN(c3cccnc3)C[C@@H]2C1", "LdMetRS": 6.667}
{"compound": "CC(C)[C@H]1CN(CCCO)C[C@@H]1NC(=O)CCS(C)(=O)=O", "LdMetRS": 7.673, "Mtb heat-shock": 7.095}
{"compound": "CCc1ccc(C(=O)NC[C@H]2CCCN2C(=O)c2ccc(CC)o2)o1", "LdMetRS": 5.866, "Mtb heat-shock": -29.39}
{"compound": "CC(=O)c1ccc(NC(=O)c2ccc3c(c2)C2(CCCCC2)CN3)cc1", "LdMetRS": 12.89}
{"compound": "CN1CCO[C@H]2CN(S(=O)(=O)c3ccc(C#N)cc3)C[C@H]21", "LdMetRS": -26.13}
{"compound": "CC(C)OC[C@H]1CCC[C@]12CN(S(=O)(=O)c1cccs1)CCO2", "LdMetRS": 13.77, "Mtb heat-shock": -6.199}
{"compound": "O=C(O)C(F)(F)F.[H][C@@]12COC[C@@H](CC(=O)N3CCOCC3)[C@]1([H])CN(C(=O)c1cccnc1)C2", "Mtb heat-shock": -5.703}
{"compound": "CNc1nc(C2CCCCN2C(=O)COC)nc2c1CN(C)CC2", "stereo": "centres undefined", "LdMetRS": 6.824, "Mtb heat-shock": -8.249}
{"compound": "O=C(CCc1nccs1)N1CCCC(n2ccnc2)C1", "stereo": "centres undefined", "LdMetRS": 18.05, "Mtb heat-shock": 14.44}
{"compound": "[H][C@@]12CCN(C(=O)c3cc(C)on3)C[C@@]1([H])O[C@@H](c1ccncn1)C2", "Mtb heat-shock": -6.318}
{"compound": "Cn1cc(CN2CC[C@H]3O[C@H](C(=O)NCc4ccco4)CC[C@H]32)cn1", "LdMetRS": 13.81}
{"compound": "CN(CCOc1ccccc1)C(=O)Nc1cccn(C)c1=O", "LdMetRS": 7.599, "Mtb heat-shock": -7.547}
{"compound": "CN(C)c1ccc(C(=O)N2CCC(c3cc4cnccc4[nH]3)CC2)cc1", "LdMetRS": 8.721, "Mtb heat-shock": 18.19}
{"compound": "CN(C)C(=O)N1CCCC2(CCN(c3ccsc3)C2=O)C1", "stereo": "centres undefined", "LdMetRS": 8.791, "Mtb heat-shock": 6.797}
{"compound": "Cc1ccc(OCCN2CCC(c3ccnn3CCO)CC2)cc1", "LdMetRS": 9.143, "Mtb heat-shock": -15.66}
{"compound": "O=C(CCc1ccccc1F)N1CCC(Nc2cccnn2)CC1", "LdMetRS": 20.39, "Mtb heat-shock": -10.8}
{"compound": "CN(C(=O)NCc1ccncc1)C1CCCN(c2ccccc2)C1=O", "stereo": "centres undefined", "LdMetRS": 2.632, "Mtb heat-shock": 10.3}
{"compound": "COc1ccc(CN(C)[C@@H]2COC[C@H]2c2ccc(F)cc2)cc1", "LdMetRS": 15.31}
{"compound": "[H][C@@]12CS(=O)(=O)C[C@]1([H])N(Cc1ccc(CCC)o1)CCN2C(=O)C(C)C", "Mtb heat-shock": 26.87}
{"compound": "CC(C)(O)CCc1ccc(C(=O)NCCC2CCOC2)cc1", "stereo": "centres undefined", "LdMetRS": 10.78, "Mtb heat-shock": -4.656}
{"compound": "COC(=O)N1CCCCC1C(=O)N1CCCN(c2ccnc(C)c2)CC1", "stereo": "centres undefined", "LdMetRS": 16.11, "Mtb heat-shock": 3.946}
{"compound": "Cc1noc(C(C)C)c1C(=O)NCc1cc(F)cc(F)c1", "LdMetRS": 12.55, "Mtb heat-shock": -9.068}
{"compound": "Cc1cc(=O)[nH]c(-n2nc(C)c(CCC(=O)NCc3cccs3)c2C)n1", "LdMetRS": 7.887, "Mtb heat-shock": 102.2}
{"compound": "C/C=C(\\C)CN1CCC2(CCC(=O)N2OCc2ccccc2F)CC1", "LdMetRS": 7.904, "Mtb heat-shock": 5.737}
{"compound": "O=C(O)C(F)(F)F.O=C(O)C(F)(F)F.[H][C@]12C[C@@H](Cn3cncn3)N(C(C)=O)[C@@]1([H])CCN(Cc1ccncc1)C2", "Mtb heat-shock": -38.24}
{"compound": "COc1ccc(C(C)(C)C)cc1CN1CCn2c(CO)nnc2C1", "LdMetRS": 16.72}
{"compound": "CC(=O)Nc1ccc(C(=O)N2CCSCC2c2ccc(C)o2)cc1", "stereo": "centres undefined", "LdMetRS": 12.71, "Mtb heat-shock": -12.38}

Repeated from the top, 2 entries:

| Compound | LdMetRS | Mtb heat-shock |
|---|---|---|
| `O=C(c1cnccn1)N1C[C@@H]2CCN(c3cccnc3)C[C@@H]2C1` | 6.667 | - |
| `CC(C)[C@H]1CN(CCCO)C[C@@H]1NC(=O)CCS(C)(=O)=O` | 7.673 | 7.095 |